Publication PMC1182371
Construct, isoform or probe ends are uncertain for at least one entry. The comparison behind a weaker result is the experiment's own reference, which may not be listed here. At least one verdict was read from the data and is not stated in words by the source.

By UniProt entry, the sequences of proteins in these tests, tags left out. Residues count along the entry.
UniProt Q9UIH9, 294-416: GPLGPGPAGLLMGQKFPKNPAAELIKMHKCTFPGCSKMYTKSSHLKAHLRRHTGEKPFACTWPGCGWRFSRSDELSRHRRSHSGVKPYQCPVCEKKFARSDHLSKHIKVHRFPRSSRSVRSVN

Target: KLF15-ZF-GST (human) (UniProt Q9UIH9)
Experiment: competition with a labelled probe
Conditions: vs bRho29 or hRho29 probe, EMSA: 4 mM HEPES, 5 mM EGTA, 100 mM KCl, 0.25 mM ZnCl2, 0.02% NP40, 0.1 M DTT, 4% glycerol, 90-120 min on ice, pH not stated, recombinant protein, residues 294-416, protein details: N-terminal GST, label: unlabeled

| Sequence | binding result (as wild type) | binding result |
| --- | --- | --- |
| TTAATAACGCCCCCACGATCCGAGGTGC (double strand) [bRho29 D16] | binds | – |
| TTAATAACGCCCCCAATCGAAGAGGTGC (double strand) [bRho29 D19] | binds | – |
| TTAATAACGCCCAACATCTCCGAGGTGC (double strand) [bRho29 D13] | – | binds more weakly |
| TTACGCACGCCCCCAATCTCCGAGGTGC (double strand) [bRho29 D4] | binds | – |
| TTAATAAAGCCCACAATCTCCGAGGTGC (double strand) [bRho29 D8_13] | – | binds more weakly |
| TTAATAACGCCCCCAATCTCCGAGTGTC (double strand) [bRho29 D25] | binds | – |
| TTAATAACGCACCCAATCTCCGAGTGTC (double strand) [bRho29 D11] | – | binds more weakly |
| TTAATACATCCCAACATCTCCGAGGTGC (double strand) [bRho29 D7+D13] | – | binds more weakly |
| TTAATACATCCCCCAATCTCCGAGGTGC (double strand) [bRho29 D7] | – | binds more weakly |
| TTAATAACGCCCCCAATCTCCTGTGTGC (double strand) [bRho29 D22] | binds | – |
| GGCATAACGCCCCCAATCTCCGAGGTGC (double strand) [bRho29 D1] | binds | – |
